These are yes or no findings as the source states them, for the method shown. In cells and extracts the contact can be indirect. A yes stands for co-enrichment or nearness to the bait. Other partners may have been found.
Biological target: Y537S ERα (recombinant, purified) (UniProt P03372)
Assay: affinity purification with mass spectrometry; ERE DNA pulldown: 1 ug purified receptor, 2-2.5 mg HeLa S3 nuclear extract, 15 pmol 4xERE-E4 DNA on Dynabeads M-280 streptavidin; no E2; label-free quantitative MS, normalised to ESR1 N-terminal peptides; only the target purified

By UniProt entry, the sequences of proteins in these tests, tags left out. Where a name states a change or a piece, a line headed by the entry shows the natural chain unless it says otherwise.
UniProt P03372: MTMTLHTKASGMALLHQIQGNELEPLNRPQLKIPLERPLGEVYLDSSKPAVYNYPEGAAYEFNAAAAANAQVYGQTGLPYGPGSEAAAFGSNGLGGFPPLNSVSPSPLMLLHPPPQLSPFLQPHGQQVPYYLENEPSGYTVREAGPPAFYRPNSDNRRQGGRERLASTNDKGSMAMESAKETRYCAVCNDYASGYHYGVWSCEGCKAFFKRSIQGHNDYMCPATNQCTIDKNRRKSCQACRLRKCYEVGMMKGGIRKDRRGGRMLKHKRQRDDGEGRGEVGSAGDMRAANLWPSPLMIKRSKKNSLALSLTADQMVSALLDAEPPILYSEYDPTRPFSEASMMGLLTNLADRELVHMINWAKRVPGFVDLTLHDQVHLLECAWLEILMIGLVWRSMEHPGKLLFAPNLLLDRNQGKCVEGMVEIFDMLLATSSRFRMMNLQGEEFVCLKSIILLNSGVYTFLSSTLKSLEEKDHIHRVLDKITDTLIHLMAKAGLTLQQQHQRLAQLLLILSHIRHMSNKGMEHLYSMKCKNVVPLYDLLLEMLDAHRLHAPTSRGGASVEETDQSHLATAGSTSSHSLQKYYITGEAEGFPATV
UniProt Q92793: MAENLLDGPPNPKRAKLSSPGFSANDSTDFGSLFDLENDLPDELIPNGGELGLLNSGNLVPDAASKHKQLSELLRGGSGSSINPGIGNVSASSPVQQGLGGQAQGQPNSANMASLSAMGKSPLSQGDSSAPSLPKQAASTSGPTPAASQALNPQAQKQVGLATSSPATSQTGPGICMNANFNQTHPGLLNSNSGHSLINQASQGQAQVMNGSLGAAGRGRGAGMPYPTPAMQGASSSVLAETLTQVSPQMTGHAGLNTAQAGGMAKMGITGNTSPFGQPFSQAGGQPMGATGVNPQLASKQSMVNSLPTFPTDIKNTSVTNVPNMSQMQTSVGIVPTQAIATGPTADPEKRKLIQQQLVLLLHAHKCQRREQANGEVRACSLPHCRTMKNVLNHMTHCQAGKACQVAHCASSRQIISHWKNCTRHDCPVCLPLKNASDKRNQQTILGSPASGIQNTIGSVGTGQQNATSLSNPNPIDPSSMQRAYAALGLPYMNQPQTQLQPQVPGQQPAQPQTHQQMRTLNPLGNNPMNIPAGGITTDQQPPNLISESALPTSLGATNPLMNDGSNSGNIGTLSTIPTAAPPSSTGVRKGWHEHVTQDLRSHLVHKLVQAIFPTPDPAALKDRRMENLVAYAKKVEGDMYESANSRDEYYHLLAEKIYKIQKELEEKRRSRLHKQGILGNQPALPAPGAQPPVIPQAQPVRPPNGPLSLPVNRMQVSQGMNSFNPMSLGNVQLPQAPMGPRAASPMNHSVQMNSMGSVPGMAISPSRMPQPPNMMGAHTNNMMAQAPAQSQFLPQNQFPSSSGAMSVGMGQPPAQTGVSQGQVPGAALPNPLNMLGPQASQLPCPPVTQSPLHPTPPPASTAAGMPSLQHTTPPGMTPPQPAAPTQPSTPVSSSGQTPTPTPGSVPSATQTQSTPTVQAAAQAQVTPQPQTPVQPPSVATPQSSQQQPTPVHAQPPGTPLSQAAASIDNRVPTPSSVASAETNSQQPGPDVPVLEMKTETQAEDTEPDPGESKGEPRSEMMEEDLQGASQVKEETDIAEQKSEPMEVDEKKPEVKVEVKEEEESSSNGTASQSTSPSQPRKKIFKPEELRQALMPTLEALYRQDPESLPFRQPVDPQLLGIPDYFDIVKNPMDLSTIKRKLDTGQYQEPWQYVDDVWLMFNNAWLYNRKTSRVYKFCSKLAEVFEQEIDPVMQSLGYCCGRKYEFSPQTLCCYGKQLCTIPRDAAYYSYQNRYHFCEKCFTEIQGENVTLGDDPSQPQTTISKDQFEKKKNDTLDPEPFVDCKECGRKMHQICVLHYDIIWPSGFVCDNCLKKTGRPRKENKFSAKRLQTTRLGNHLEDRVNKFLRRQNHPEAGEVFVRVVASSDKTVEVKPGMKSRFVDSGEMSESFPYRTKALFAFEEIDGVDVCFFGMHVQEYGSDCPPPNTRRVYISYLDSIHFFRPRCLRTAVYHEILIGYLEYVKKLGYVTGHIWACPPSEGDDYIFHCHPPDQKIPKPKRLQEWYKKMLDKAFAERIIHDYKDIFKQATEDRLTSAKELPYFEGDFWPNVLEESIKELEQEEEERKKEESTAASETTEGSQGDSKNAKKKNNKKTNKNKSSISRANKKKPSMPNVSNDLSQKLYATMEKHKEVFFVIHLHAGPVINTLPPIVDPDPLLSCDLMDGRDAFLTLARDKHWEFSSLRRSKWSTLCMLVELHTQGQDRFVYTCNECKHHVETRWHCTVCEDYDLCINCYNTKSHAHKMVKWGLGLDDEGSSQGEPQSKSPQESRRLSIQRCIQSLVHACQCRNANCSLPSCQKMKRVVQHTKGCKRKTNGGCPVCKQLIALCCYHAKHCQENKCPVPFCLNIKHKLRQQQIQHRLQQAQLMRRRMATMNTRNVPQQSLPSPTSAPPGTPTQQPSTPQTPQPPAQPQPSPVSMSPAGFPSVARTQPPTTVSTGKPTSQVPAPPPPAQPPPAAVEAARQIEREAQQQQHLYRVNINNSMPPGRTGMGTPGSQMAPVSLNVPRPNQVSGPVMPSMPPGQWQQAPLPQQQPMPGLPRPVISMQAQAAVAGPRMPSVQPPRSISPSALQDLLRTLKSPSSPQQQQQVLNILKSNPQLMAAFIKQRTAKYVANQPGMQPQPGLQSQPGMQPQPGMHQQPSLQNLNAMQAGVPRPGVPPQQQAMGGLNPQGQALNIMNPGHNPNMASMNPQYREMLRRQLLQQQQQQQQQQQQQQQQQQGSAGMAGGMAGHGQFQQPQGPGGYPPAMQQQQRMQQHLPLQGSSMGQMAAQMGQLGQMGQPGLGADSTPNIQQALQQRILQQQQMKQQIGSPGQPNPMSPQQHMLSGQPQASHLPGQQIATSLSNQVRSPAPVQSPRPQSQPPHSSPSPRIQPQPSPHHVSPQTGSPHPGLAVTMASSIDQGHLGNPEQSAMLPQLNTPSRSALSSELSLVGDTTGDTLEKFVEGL
UniProt Q09472: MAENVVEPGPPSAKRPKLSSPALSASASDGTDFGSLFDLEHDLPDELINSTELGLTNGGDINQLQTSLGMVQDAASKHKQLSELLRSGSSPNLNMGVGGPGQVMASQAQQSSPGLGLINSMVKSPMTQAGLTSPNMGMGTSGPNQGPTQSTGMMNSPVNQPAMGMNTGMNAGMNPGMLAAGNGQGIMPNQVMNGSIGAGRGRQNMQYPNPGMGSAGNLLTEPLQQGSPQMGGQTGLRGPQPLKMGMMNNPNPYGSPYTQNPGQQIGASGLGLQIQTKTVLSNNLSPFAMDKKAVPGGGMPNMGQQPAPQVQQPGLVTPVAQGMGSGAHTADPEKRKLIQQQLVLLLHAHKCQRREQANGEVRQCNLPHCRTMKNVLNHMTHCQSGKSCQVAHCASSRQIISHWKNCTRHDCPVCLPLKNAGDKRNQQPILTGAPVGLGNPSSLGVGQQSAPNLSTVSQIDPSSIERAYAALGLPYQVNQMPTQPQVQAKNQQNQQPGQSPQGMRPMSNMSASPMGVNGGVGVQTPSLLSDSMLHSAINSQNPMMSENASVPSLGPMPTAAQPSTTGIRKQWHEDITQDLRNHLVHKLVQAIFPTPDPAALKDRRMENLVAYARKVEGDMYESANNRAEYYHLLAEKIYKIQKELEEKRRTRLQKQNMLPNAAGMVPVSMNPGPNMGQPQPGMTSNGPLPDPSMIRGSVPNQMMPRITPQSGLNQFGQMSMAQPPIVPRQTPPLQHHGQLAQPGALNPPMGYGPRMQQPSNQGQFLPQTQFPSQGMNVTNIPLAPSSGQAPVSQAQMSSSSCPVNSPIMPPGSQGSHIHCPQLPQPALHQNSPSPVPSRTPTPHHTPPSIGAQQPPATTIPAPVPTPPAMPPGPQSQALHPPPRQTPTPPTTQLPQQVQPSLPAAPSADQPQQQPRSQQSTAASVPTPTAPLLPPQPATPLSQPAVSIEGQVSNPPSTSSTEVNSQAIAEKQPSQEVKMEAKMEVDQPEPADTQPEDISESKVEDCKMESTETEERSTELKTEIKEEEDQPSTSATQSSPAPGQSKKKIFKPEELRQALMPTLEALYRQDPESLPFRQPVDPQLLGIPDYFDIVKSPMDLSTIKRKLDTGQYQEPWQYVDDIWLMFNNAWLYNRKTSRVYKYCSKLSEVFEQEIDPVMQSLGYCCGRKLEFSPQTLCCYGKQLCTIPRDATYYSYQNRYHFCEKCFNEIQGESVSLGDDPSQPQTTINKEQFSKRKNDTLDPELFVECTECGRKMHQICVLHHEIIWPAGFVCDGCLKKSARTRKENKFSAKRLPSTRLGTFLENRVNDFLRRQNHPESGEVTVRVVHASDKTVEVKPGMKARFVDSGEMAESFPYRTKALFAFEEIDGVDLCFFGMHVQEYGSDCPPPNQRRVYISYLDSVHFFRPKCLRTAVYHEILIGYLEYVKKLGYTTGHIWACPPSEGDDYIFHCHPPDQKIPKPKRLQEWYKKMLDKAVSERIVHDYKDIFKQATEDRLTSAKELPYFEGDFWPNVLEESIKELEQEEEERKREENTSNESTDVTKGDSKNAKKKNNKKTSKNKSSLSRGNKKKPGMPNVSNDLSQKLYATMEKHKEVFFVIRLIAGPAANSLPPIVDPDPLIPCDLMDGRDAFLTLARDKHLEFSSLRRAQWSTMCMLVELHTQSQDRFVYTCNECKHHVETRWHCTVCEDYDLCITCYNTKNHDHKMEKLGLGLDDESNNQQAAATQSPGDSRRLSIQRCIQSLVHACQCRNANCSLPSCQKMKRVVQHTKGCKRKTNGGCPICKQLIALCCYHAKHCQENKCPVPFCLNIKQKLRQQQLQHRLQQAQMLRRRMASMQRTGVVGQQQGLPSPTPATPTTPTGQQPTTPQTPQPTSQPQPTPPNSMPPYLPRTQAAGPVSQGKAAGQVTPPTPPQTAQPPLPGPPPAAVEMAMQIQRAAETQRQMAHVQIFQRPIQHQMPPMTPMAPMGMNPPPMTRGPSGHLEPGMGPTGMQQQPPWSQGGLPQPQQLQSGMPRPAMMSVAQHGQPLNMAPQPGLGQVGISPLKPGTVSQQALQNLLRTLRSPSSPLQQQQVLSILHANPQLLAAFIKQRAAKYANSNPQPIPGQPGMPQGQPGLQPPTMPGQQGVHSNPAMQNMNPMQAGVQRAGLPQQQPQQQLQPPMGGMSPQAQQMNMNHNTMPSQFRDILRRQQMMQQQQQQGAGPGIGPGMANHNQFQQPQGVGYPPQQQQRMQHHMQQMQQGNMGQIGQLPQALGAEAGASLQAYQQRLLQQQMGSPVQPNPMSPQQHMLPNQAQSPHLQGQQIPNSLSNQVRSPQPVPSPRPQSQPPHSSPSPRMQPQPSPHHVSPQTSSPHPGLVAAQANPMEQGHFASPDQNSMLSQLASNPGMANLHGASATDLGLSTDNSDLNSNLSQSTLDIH

Substance | binding
CBP, endogenous (from UniProt Q92793 1-2442) | binds
p300, endogenous (from UniProt Q09472 1-2414) | binds

— publication PMC6095836
